This is one part of the list. Further columns of the screen follow, without active or inactive calls. Most of these compounds were active or inconclusive in the main read-out, so they are no random draw. Potencies come from curve fits of mixed quality, noted in brackets.

The test in a line: qHTS Assay to Find Inhibitors of Chronic Active B-Cell Receptor Signaling. To be noted: ABC-DLBCL IkBa-CBG/CBR reporter, luminescence ratio (green luciferase fused to IkBa over red control in TMD8 lymphoma cells), 4 h; measured here: CBR red luminescence, cell number. The essentials: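 TMD8 ABC-DLBCL cells carrying doxycycline-inducible green luciferase fused to IkappaBalpha plus unfused red luciferase were exposed to compounds (up to 46 uM) for 4 hrs at 37C. Activity came from the overlap-corrected green/red luminescence ratio.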
As to `C=CCn1c(N)c(C(=O)OC(C)CC)c2nc3ccccc3nc21` (stereo not drawn), the concentration at half-maximal activity (AC50) (commonly the concentration giving half of the maximal activity seen) is 3.98 µM [falling, partial curve, poor fit].
The result for `CCOc1cc(N2CCOCC2)c(OCC)cc1NC(=O)C(C)Oc1ccccc1` (stereo not drawn) reads 11.6 µM [rising, partial curve]; that for `Cc1ccc(C(=O)N/C(=C\c2ccccc2)C(=O)OCc2ccccc2)cc1`, 29.1 µM [falling, single point].
Turning to `O=C(N/N=C\c1ccc(Sc2ccccn2)o1)c1cccc(Br)c1`, the AC50 was 35.5 µM [falling, single point].
For `C/C(=N\NC(=O)c1cccc2ccccc12)c1cccnc1`, the AC50 is 22.4 µM [falling, single point].
As to `CCN(CC)c1ccc(/C=N/NC(=O)c2ccccn2)cc1`, the AC50 is 10 µM [falling, partial curve].
For the molecule `Cn1sc(=O)c2cc(S(=O)(=O)NC3CC3)ccc21`, the AC50 is 35.5 µM [rising, single point].
Consider `Cc1ccc(-n2c(SCC(=O)Nc3cccc(S(N)(=O)=O)c3)nc3ccccc32)cc1`, for which the AC50 was 14.6 µM [falling, single point].
The figure for `COc1ccc(F)c(C2C(C#N)=C(N)Oc3n[nH]c(C(C)(C)C)c32)c1` (stereo not drawn) is 32.6 µM [falling, single point]; for `c1ccc(-c2nnc(-c3ccccc3)nn2)cc1` it is 0.112 µM [rising, full curve, poor fit].
Turning to `Clc1c(-c2nnc3n2CCCCC3)sc2ccccc12`, the AC50 was 17.8 µM [falling, single point].
Regarding `Cc1nnsc1-c1c(C(=O)Oc2ccccc2)c(C)nn1-c1ccccc1`, the AC50 is 35.5 µM [falling, single point].
Regarding `CCN(C(=O)CSc1nncn1-c1ccccc1)C1CCS(=O)(=O)C1` (stereo not drawn), the AC50 was 1.64 µM [rising, partial curve, poor fit].
With `COc1ccc(OC)c(/C(C)=N/Nc2ccc(C(=O)O)cc2)c1`, the AC50 is 6.31 µM [falling, partial curve, poor fit].
The result for `Oc1c(Br)cc(Br)c(/C=N/n2c(-c3ccccc3)n[nH]c2=S)c1Br` reads 20 µM [falling, partial curve, poor fit]; that for `O=C(CN1CCN(S(=O)(=O)c2ccc(Cl)cc2)CC1)Nc1ccc2c(c1)OCO2`, 2.51 µM [falling, partial curve, poor fit].
Consider `Cc1ccc(C(=O)Oc2ccccc2N2C(=O)C3CCC(C)CC3C2=O)cc1` (stereo not drawn), for which the AC50 is 0.411 µM [rising, full curve, poor fit].
With `Cc1cc(F)ccc1S(=O)(=O)Nc1nc2ccccc2nc1Cl`, the AC50 was 2.82 µM [falling, full curve].

(Values after PubChem BioAssay AID493014 (National Center for Advancing Translational Sciences (NCATS), 2011).)
